Data as given in PMC11166643.
These are yes or no findings as the source states them, for the method shown. Binding seen in cells or lysates may run through a third protein. Here binding means that the protein was enriched with, or labelled near, the bait; the list need not be complete. For part of these data: Tags and fused reporters may be left off the sequences shown.

By UniProt entry, the sequences of proteins in these tests, tags left out.
UniProt Q16665: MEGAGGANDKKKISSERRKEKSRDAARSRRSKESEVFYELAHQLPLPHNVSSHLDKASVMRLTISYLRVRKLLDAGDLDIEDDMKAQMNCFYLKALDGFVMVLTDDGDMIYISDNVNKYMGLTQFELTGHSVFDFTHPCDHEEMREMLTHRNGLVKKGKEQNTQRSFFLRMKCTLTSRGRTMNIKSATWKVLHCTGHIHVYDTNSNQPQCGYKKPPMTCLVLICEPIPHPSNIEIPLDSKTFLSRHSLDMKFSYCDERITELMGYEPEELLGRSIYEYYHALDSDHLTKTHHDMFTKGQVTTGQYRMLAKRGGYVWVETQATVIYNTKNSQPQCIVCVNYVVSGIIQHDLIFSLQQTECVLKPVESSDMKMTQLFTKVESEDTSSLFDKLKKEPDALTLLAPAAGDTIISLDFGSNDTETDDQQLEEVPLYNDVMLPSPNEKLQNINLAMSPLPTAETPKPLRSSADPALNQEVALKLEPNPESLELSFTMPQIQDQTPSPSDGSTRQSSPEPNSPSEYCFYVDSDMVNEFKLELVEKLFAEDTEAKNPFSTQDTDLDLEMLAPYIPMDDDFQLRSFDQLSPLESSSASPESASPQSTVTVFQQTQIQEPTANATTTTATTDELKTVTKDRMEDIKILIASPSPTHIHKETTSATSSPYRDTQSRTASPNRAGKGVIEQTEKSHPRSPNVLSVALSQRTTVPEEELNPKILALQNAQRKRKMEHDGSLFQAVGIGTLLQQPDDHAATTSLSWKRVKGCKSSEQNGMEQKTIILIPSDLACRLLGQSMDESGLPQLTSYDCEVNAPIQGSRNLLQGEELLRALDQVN
UniProt Q9NT62: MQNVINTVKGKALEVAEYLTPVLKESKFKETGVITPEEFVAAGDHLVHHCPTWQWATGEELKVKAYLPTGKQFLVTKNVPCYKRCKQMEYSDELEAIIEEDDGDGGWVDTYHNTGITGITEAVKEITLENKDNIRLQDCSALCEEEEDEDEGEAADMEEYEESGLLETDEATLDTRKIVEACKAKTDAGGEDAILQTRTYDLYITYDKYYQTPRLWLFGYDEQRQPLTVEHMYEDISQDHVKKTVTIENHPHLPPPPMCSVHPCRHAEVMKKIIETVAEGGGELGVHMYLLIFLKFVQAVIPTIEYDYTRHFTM
UniProt Q9UNE7: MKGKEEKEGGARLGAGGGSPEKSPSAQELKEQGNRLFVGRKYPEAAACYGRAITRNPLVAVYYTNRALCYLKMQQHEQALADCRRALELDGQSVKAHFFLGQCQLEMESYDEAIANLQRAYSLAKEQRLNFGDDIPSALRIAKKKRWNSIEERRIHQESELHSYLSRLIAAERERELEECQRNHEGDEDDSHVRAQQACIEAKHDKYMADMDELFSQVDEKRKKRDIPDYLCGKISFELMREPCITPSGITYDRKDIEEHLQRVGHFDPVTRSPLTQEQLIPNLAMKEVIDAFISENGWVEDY
UniProt Q96LR5: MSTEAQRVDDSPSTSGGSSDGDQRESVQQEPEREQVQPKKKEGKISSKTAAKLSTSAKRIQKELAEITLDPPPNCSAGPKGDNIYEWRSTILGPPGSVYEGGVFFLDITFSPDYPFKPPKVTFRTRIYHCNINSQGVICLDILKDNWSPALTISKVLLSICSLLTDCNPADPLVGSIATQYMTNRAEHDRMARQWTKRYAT

Experiments:
[1] = target: Flag-HIF-1α (UniProt Q16665); assay: affinity purification with mass spectrometry; immunoprecipitation and mass spectrometry from HEK293T with exogeneous Myc-DAB2IP or Flag-HIF-1α overexpression; Sequest, Uniprot-Homo database
[2] = target: T1, Myc-DAB2IP (full length: 1-1189) (UniProt Q5VWQ8); assay: as above
T1 sequence: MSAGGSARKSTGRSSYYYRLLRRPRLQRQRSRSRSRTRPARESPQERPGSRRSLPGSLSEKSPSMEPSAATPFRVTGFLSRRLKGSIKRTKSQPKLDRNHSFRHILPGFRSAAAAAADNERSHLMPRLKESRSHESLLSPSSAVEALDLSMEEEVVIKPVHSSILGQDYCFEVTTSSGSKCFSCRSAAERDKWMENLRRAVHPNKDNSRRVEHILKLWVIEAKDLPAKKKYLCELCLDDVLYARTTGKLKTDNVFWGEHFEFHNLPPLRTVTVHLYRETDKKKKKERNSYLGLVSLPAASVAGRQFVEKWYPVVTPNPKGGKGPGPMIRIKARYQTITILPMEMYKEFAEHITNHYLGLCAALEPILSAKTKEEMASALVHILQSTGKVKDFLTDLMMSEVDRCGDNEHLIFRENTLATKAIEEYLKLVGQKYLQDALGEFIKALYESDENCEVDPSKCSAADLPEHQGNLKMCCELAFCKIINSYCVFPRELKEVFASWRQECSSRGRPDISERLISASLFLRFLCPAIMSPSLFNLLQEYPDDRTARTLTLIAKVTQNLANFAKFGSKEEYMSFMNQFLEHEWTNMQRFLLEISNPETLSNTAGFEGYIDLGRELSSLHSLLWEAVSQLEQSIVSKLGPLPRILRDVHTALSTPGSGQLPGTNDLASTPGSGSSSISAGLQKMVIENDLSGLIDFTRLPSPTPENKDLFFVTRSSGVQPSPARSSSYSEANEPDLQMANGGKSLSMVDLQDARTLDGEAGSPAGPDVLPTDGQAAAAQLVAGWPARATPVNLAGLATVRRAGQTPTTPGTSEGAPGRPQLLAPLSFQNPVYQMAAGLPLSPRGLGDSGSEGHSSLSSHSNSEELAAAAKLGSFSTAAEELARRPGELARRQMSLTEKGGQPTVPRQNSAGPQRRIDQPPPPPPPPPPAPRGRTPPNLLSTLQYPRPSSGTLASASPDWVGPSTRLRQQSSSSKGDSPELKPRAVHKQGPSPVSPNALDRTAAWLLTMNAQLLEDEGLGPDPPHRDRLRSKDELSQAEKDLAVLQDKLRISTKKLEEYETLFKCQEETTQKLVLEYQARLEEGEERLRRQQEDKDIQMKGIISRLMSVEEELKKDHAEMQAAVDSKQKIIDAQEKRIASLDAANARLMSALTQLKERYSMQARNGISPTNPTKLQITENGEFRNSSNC

binding [1] | binding [2] | Substance
binds | binds | ATG3 (from UniProt Q9NT62 1-314) (enzyme)
binds | binds | STUB1 (endogenous, HEK293T) (from UniProt Q9UNE7 1-303) (enzyme)
binds | binds | UBE2E2 (from UniProt Q96LR5 1-201) (enzyme)
